Test results: patent publication EP3900733A1, “SRC KINASE ACTIVATORS AND ENG FUNCTION INHIBITORS AS ENHANCERS OF SKIN HOMEOSTASIS/REGENERATION AND HAIR GROWTH” (Derma Innovate S.L., priority 2020, dated 2021)
Entries after “also recorded” stand apart in the source; their conditions may differ. At least one structure is not confirmed: it was looked up by name or label, or the drawing left a doubt.

Key:
Format in all cases: cell-based
[1] = tested on: human primary skin fibroblasts; assay: Cell proliferation (automated cell counting), with or without phototreatment; details: PT with mALA and red light, 48 hours after irradiation, Figures 4 and 5
[2] = tested on: ex vivo grown human hair follicles; assay: Activation of ex vivo cultured hair follicles (hair bulb area image analysis, histology, Ki67); details: PT using mALA and red light
Procedure: Human hair follicles were obtained from human scalp samples taken from the occipital skin of volunteer donors during a hair transplant procedure. Eligible patients provided written informed consent, and the Ethical committee of the Ramon y Cajal Hospital approved this procedure.
Follicular units (FUs) were dissected using scalpels under a magnifier, and the ones in resting phase (telogen) were selected. Those FUs were transferred to the laboratory and maintained at 4 °C until processed in Williams' medium E (Sigma) supplemented with 10x Penicilin/Streptomycin, 10x Aphotericin B, and 2 mM L-Glutamin (all from Gibco), 5 µg/ml Insulin, 5 µg/ml transferring, 20 pM T3 hormone, 0.083 µg/ml cholera toxin and 0.4 µg/ml hydrocortisone. FUs can be stored in complete Williams' medium at 4 °C for approximately 5 days without significant loss of the mini organ function. FU cultures were maintained at 37°C in a 5% CO2 humidified atmosphere.
Endogenous protoporphyrin IX (PpIX)-dependent photodynamic treatments (PT) were routinely performed on exponentially growing cells at 60% of confluence, as well as in ex vivo cultured hair follicles (HF) (Carrasco E et al. Methods 15:109, 2016; Calvo-Sanchez MI et al. Sci. Rep.9:4509, 2019). […] Additionally, total controls in strict dark conditions (no PpIX precursor, no light) were evaluated for each biological model, although this control was not routinely used in experimental series since ambient light is an unavoidable contaminant, and the light control is the most adequate in this experimental design.
For the quantification of the number of cells in cell cultures after different treatments, a Bio-Rad TC20™ automated cell counter was used following the instructions of the manufacturer. […] Image acquisition was performed using a Nikon Eclipse Ci LED-fluorescence microscope using a 2x objective and a 0.55x Reduction Lens adapter coupled to a Jenoptik PROGRES GRYPHAX® SUBRA Super HD camera and suited Version 1.1.8.153 image software pack. […]

[3] = tested on: mouse E14 embryonic stem cells; assay: Cell proliferation (automated cell counting), with or without phototreatment; details: PT with mALA and red light, 48 hours after irradiation, Figure 3

`COC(=O)CCC(=O)CN` [mALA, methyl aminolevulinate] was tested, and the “activation of cell proliferation by phototreatment (PT)” value [1] was “activates the proliferation; also recorded: basal activation”, the “hair bulb/dermal papilla region (DP) thickening” value ([2]; Figure 6) was “prolonged thickening; also recorded: significant hair bulb/dermal papilla region (DP) thickening” and the “dermal papilla size and cell number” value ([2]; Figure 7 left panels) was “enlargement and significant cell number increase”. For the same compound, the “cell proliferation markers (Ki67) in the inner and outer root sheaths” value ([2]; Figure 7 right panels) was “strong induction” and the “activation of cell proliferation by phototreatment (PT)” value [3] was “activating proliferation and increase the number of cells; also recorded: basal activation”.
